Test results reported in the supplement of paper PMC4604168 (melanoma cell lines).
This is one part of the list. Repeats are few or missing, and single values can be far off.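 Imaging used 1,536-well plates; nuclei positive for cleaved PARP by antibody were divided by total DNA-stained nuclei to yield the apoptosis fraction. Doses for screening kept most cells viable, and cell lines differ markedly in resting and induced cleaved-PARP levels.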

Columns and labels:
Test in all cases: cleaved PARP positive nuclei fraction relative to DMSO control; melanoma cells; higher = more apoptosis
Details in all cases: library dose: low library concentration; 72 h
[1] = tested on: 501Mel
[2] = tested on: A101D
[3] = tested on: A2058
[4] = tested on: C32
[5] = tested on: CBRC008 (line from a melanoma biopsy)
[6] = tested on: CBRC014 (line from a melanoma biopsy)
[7] = tested on: CBRC016 (line from a melanoma biopsy)
[8] = tested on: CBRC017 (line from a melanoma biopsy)
[9] = tested on: COLO792
[10] = tested on: COLO800
[11] = tested on: COLO829
[12] = tested on: G361
[13] = tested on: IPC-298
[14] = tested on: IST-MEL1
[15] = tested on: LB2518-MEL
[16] = tested on: LOXIMVI

SMILES | cleaved PARP positive nuclei fraction [1] | cleaved PARP positive nuclei fraction [2] | cleaved PARP positive nuclei fraction [3] | cleaved PARP positive nuclei fraction [4] | cleaved PARP positive nuclei fraction [5] | cleaved PARP positive nuclei fraction [6] | cleaved PARP positive nuclei fraction [7] | cleaved PARP positive nuclei fraction [8] | cleaved PARP positive nuclei fraction [9] | cleaved PARP positive nuclei fraction [10] | cleaved PARP positive nuclei fraction [11] | cleaved PARP positive nuclei fraction [12] | cleaved PARP positive nuclei fraction [13] | cleaved PARP positive nuclei fraction [14] | cleaved PARP positive nuclei fraction [15] | cleaved PARP positive nuclei fraction [16]
CC[C@]1(O)C[C@H]2CN(CCc3c([nH]c4ccccc34)[C@@](C(=O)OC)(c3cc4c(cc3OC)N(C=O)[C@H]3[C@@](O)(C(=O)OC)[C@H](OC(C)=O)[C@]5(CC)C=CCN6CC[C@]43[C@@H]65)C2)C1 [vincristine] + Oc1nc(-c2ccc(C(F)(F)F)cc2)nc2c1CSCC2 [XAV939] (first compound 0.0001 µM, partner dose 2 µM) | 66.5% | 45.1% | 1110% | 44.7% | 130% | 77.6% | 50.8% | 130% | 113% | 68.2% | 55.7% | 97.4% | 48.1% | 90.3% | 152% | 28.3%
Cc1ccc(Nc2nccc(N(C)c3ccc4c(C)n(C)nc4c3)n2)cc1S(N)(=O)=O [Pazopanib] + O=C(Nc1ccccc1)c1cc([N+](=O)[O-])ccc1Cl [GW9662] (first compound 0.4 µM, partner dose 2 µM) | 152% | 22.5% | 56.1% | 144% | 69% | 93.4% | 81.1% | 120% | 58.1% | 51.3% | 137% | 89.3% | 59.3% | 67.4% | 66.8% | 165%
COc1cc([C@@H]2c3cc4c(cc3[C@@H](O[C@@H]3O[C@@H]5CO[C@@H](C)O[C@H]5[C@H](O)[C@H]3O)[C@H]3COC(=O)[C@H]23)OCO4)cc(OC)c1O [etoposide] + COc1ccc(COc2ccc(Cc3cnc(N)nc3N)cc2OC)cc1 [GW2580] (first compound 0.02 µM, partner dose 1 µM) | 317% | 14.2% | 83.1% | 40.8% | 43.8% | 81.8% | 43.4% | 69.8% | 91.8% | 18.8% | 20.3% | 98.5% | 38.8% | 64.9% | 79.8% | 50.1%
O=c1[nH]nc(Sc2ncc([N+](=O)[O-])s2)n1-c1ccc2c(c1)OCCO2 + N#Cc1c(O)c2c(-c3ccc(-c4ccccc4O)cc3)csc2[nH]c1=O [A769662] (first compound 0.2 µM, partner dose 2 µM) | 54.8% | 16.6% | 127% | 67% | 35.2% | 101% | 21% | 192% | 76.6% | 68.3% | 48.9% | 54.2% | 43.2% | 56% | 70.4% | 183%
O=c1[nH]nc(Sc2ncc([N+](=O)[O-])s2)n1-c1ccc2c(c1)OCCO2 + O=C(Nc1ccccc1)c1cc([N+](=O)[O-])ccc1Cl [GW9662] (first compound 0.2 µM, partner dose 2 µM) | 77.6% | 21.9% | 42.7% | 36.4% | 51.6% | 105% | 207% | 350% | 122% | 197% | 116% | 136% | 72.8% | 268% | 67.3% | 79.4%
Cc1cc(Nc2cc(N3CCN(C)CC3)nc(Sc3ccc(NC(=O)C4CC4)cc3)n2)n[nH]1 [Tozasertib] + COc1ccc(COc2ccc(Cc3cnc(N)nc3N)cc2OC)cc1 [GW2580] (first compound 0.006 µM, partner dose 1 µM) | 70.8% | 20.8% | 196% | 102% | 86.7% | 99.3% | 54.6% | 106% | 77.8% | 276% | 72.1% | 123% | 62.4% | 62.7% | 51.7% | 68.5%
O=C(/C=C/c1cccnc1)NCCCCC1CCN(C(=O)c2ccccc2)CC1 + CC(C)CCN1c2nc(Nc3cc(F)c(O)c(F)c3)ncc2N(C)C(=O)C1C [BID1870] (first compound 0.01 µM, partner dose 0.2 µM) | 75.3% | 42% | 68.8% | 91.5% | 4910% | 95.8% | 576% | 420% | 473% | 116% | 502% | 4970% | 233% | 59.8% | 259% | 111%
O=c1[nH]nc(Sc2ncc([N+](=O)[O-])s2)n1-c1ccc2c(c1)OCCO2 + COc1ccc2c(c1)CCC1C2CCC2(C)C(NCCCCCCN3C(=O)C=CC3=O)CCC12 [U73122] (first compound 0.2 µM, partner dose 0.4 µM) | 63.8% | 14% | 75.4% | 44.1% | 54.2% | 88% | 160% | 87.6% | 82.3% | 112% | 71.7% | 37.3% | 47.2% | 138% | 202% | 42.1%
O=C(/C=C/c1cccnc1)NCCCCC1CCN(C(=O)c2ccccc2)CC1 + Cc1cc([N+](=O)[O-])ccc1NS(=O)(=O)c1cc(Cl)ccc1Cl [FH535] (first compound 0.01 µM, partner dose 1 µM) | 71% | 29.1% | 21.6% | 55.6% | 622% | 130% | 1370% | 678% | 418% | 158% | 403% | 2900% | 118% | 161% | 68.4% | 90.4%
O=C(/C=C/c1cccnc1)NCCCCC1CCN(C(=O)c2ccccc2)CC1 + COc1cc2ncnc(Nc3ccc(Oc4ccccc4)cc3)c2cc1OC [SrcI1] (first compound 0.01 µM, partner dose 2 µM) | 221% | 17.5% | 62% | 47.8% | 4100% | 154% | 164% | 344% | 315% | 1280% | 324% | 3240% | 138% | 58.7% | 219% | 80.3%
O=C(/C=C/c1cccnc1)NCCCCC1CCN(C(=O)c2ccccc2)CC1 + COc1ccc(COc2ccc(Cc3cnc(N)nc3N)cc2OC)cc1 [GW2580] (first compound 0.01 µM, partner dose 1 µM) | 142% | 22.3% | 16.3% | 32.5% | 3230% | 99.6% | 178% | 206% | 226% | 273% | 282% | 3740% | 774% | 31.5% | 333% | 35.6%
O=C(Nc1cc(C(F)(F)F)cc(C(F)(F)F)c1)c1cc(Cl)ccc1O + O=S(=O)(c1ccccc1)N(CC(F)(F)F)c1ccc(C(O)(C(F)(F)F)C(F)(F)F)cc1 [T0901317] (first compound 0.016 µM, partner dose 1.4 µM) | 85.5% | 26.4% | 123% | 80.2% | 124% | 127% | 52.3% | 459% | 86.2% | 139% | 128% | 87.8% | 156% | 119% | 67.8% | 166%
Cc1cc(Nc2cc(N3CCN(C)CC3)nc(Sc3ccc(NC(=O)C4CC4)cc3)n2)n[nH]1 [Tozasertib] + Cn1cc(/C=C2\C(=O)Nc3cccnc32)c2ccccc21 [GW441756] (first compound 0.006 µM, partner dose 0.4 µM) | 66% | 27.8% | 86% | 159% | 84% | 91.5% | 40.2% | 95.2% | 102% | 265% | 94.9% | 119% | 302% | 190% | 73.8% | 104%
Cc1ccc(Nc2nccc(N(C)c3ccc4c(C)n(C)nc4c3)n2)cc1S(N)(=O)=O [Pazopanib] + COc1ccc(-c2ccc3c(N4CCOCC4)nc(N4C[C@@H](C)O[C@@H](C)C4)nc3n2)cc1CO [KU0063794] (first compound 0.4 µM, partner dose 0.02 µM) | 79.9% | 56.9% | 54.1% | 52.1% | 322% | 93.6% | 119% | 111% | 103% | 125% | 153% | 272% | 144% | 82.4% | 75.9% | 73.3%
Cc1cc(Nc2cc(N3CCN(C)CC3)nc(Sc3ccc(NC(=O)C4CC4)cc3)n2)n[nH]1 [Tozasertib] + COc1ccc(-c2ccc3c(N4CCOCC4)nc(N4C[C@@H](C)O[C@@H](C)C4)nc3n2)cc1CO [KU0063794] (first compound 0.006 µM, partner dose 0.02 µM) | 66.3% | 45.6% | 91.2% | 90.1% | 103% | 124% | 22.4% | 248% | 125% | 70.6% | 116% | 59.3% | 95.3% | 66.7% | 231% | 130%
Cc1cn(-c2cc(NC(=O)c3ccc(C)c(Nc4nccc(-c5cccnc5)n4)c3)cc(C(F)(F)F)c2)cn1 [nilotinib] + CCCCCCCCCCCC1=C(O)C(=O)C=C(O)C1=O [Embelin] (first compound 0.2 µM, partner dose 1.2 µM) | 53.7% | 33.8% | 78.5% | 220% | 94.3% | 89.3% | 14% | 79.6% | 38.5% | 72.7% | 31.8% | 79.8% | 60.5% | 111% | 66.8% | 12.7%
N#CC[C@H](C1CCCC1)n1cc(-c2ncnc3[nH]ccc23)cn1 [ruxolitinib] + COC(=O)c1sccc1S(=O)(=O)Nc1ccc(Nc2ccccc2)cc1OC [GSK0660] (first compound 1 µM, partner dose 1 µM) | 76% | 17% | 138% | 76% | 85.1% | 86.9% | 28.3% | 94.1% | 71% | 144% | 76.6% | 134% | 61.6% | 62.1% | 28.5% | 77.9%
CC[C@]1(O)C[C@H]2CN(CCc3c([nH]c4ccccc34)[C@@](C(=O)OC)(c3cc4c(cc3OC)N(C=O)[C@H]3[C@@](O)(C(=O)OC)[C@H](OC(C)=O)[C@]5(CC)C=CCN6CC[C@]43[C@@H]65)C2)C1 [vincristine] + N#Cc1c(O)c2c(-c3ccc(-c4ccccc4O)cc3)csc2[nH]c1=O [A769662] (first compound 0.0001 µM, partner dose 2 µM) | 50.8% | 70.1% | 1610% | 327% | 249% | 98.3% | 114% | 99.3% | 115% | 55.4% | 157% | 110% | 36.3% | 85.5% | 84.5% | 185%

Some entries already given, showing only cleaved PARP positive nuclei fraction [3] and cleaved PARP positive nuclei fraction [7].
SMILES | cleaved PARP positive nuclei fraction [3] | cleaved PARP positive nuclei fraction [7]
Cc1ccc(Nc2nccc(N(C)c3ccc4c(C)n(C)nc4c3)n2)cc1S(N)(=O)=O [Pazopanib] + COc1ccc(-c2ccc3c(N4CCOCC4)nc(N4C[C@@H](C)O[C@@H](C)C4)nc3n2)cc1CO [KU0063794] (first compound 0.4 µM, partner dose 0.02 µM) | 54.1% | 119%
Cc1cc(Nc2cc(N3CCN(C)CC3)nc(Sc3ccc(NC(=O)C4CC4)cc3)n2)n[nH]1 [Tozasertib] + COc1ccc(-c2ccc3c(N4CCOCC4)nc(N4C[C@@H](C)O[C@@H](C)C4)nc3n2)cc1CO [KU0063794] (first compound 0.006 µM, partner dose 0.02 µM) | 91.2% | 22.4%
